Data as given in US11196057B2, “Metal-air cell with performance enhancing additive” (ARIZONA BOARD OF REGENTS ACTING FOR AND ON BEHALF OF …, priority 2010, dated 2021).
Like-named read-outs stand apart in the source and are kept apart here.

Experiments:
[1] = Electrochemical ORR analysis (CV, LSV, Koutecky-Levich) of protic additives titrated into aprotic ionic liquid BdMeIm:Tf
[2] = Cyclic voltammogram of air electrode half cell, 1-methyl-3-octyl-imidazolium chloride with and without Mn2+

O=S(=O)(O)C(F)(F)F.c1ccncc1 [pyridinium triflate]
number of electrons transferred in the oxygen reduction reaction [1]: two-electron transfer

O [water]
number of electrons transferred in the oxygen reduction reaction ([1]; protic additive in BdMeIm:Tf): one-electron system
oxygen reduction product ([1]; protic additive in BdMeIm:Tf): superoxide is dominant
effect of increasing amount of additive on oxygen reduction reaction behavior ([1]; up to ~1M): little effect

acetophenone: HTf
number of electrons transferred in the oxygen reduction reaction ([1]; protic additive in BdMeIm:Tf): four-electron transfer

benzonitrile: HTf
number of electrons transferred in the oxygen reduction reaction ([1]; protic additive in BdMeIm:Tf): four-electron transfer

CS(=O)(=O)O [methanesulfonic acid]
number of electrons transferred in the oxygen reduction reaction ([1]; protic additive in BdMeIm:Tf): four-electron transfer
reversibility of oxygen reduction ([1]; protic additive in BdMeIm:Tf): loss of reversibility
number of electrons transferred in the oxygen reduction reaction ([1]; protic additive in BdMeIm:Tf, listed as HMeS): four-electron ORR

CC(=O)O [acetic acid]
number of electrons transferred in the oxygen reduction reaction ([1]; protic additive in BdMeIm:Tf): two-electron transfer

[Mn+2] [Mn^2+]
shift in the turn-on potential for oxygen reduction ([2]; 6.1 Mol % in O2-saturated 1-methyl-3-octyl-imidazolium chloride): approximately 260 mV
reversibility of metal-oxide oxidation reaction ([2]; 6.1 Mol %, oxygen saturated): reversible
current density relative to comparative electrolyte ([2]; at half-wave potential, approximately 1.5V): 2.9 times

O.O=S(=O)(O)C(F)(F)F [hydronium triflate]
number of electrons transferred in the oxygen reduction reaction [1]: four-electron transfer

CCN(C)CC.O=S(=O)(O)C(F)(F)F [n,n-diethyl-n-methylammonium triflate]
number of electrons transferred in the oxygen reduction reaction ([1]; protic additive in BdMeIm:Tf): two-electron transfer

OCC(F)(F)F [2,2,2-trifluoroethanol]
number of electrons transferred in the oxygen reduction reaction [1]: two-electron transfer
oxygen reduction product ([1]; protic additive in BdMeIm:Tf): peroxide

Cc1nccn1C.O=S(=O)(O)C(F)(F)F [1,2-dimethylimidaozlium triflate]
number of electrons transferred in the oxygen reduction reaction ([1]; protic additive in BdMeIm:Tf): two-electron transfer

O=S(=O)(O)C(F)(F)F.c1ccnnc1 [pyridazinium triflate]
number of electrons transferred in the oxygen reduction reaction ([1]; protic additive in BdMeIm:Tf): four-electron transfer

O=S(=O)(O)C(F)(F)F [triflic acid]
number of electrons in ORR on GC disk ([1]; GC disk): two-electron reaction in the first reduction
number of electrons in ORR on Pt disk ([1]; Pt disk, additive 100 mM): four-electron reaction
number of electrons transferred in the oxygen reduction reaction ([1]; protic additive in BdMeIm:Tf): four-electron transfer
reversibility of oxygen reduction ([1]; protic additive in BdMeIm:Tf): loss of reversibility
shift in the half-wave potential for the oxygen reduction reaction ([1]; protic additive in BdMeIm:Tf): greater than 1 V
